From ChEMBL document CHEMBL1759859, “Sargachromanols as inhibitors of Na+/K+ ATPase and isocitrate lyase” (Bioorg Med Chem Lett, 2011)
In brackets after ≈: the same amount, converted by molar mass.

Assays:
[1] = test system: Escherichia coli; assay: Antibacterial activity against Escherichia coli ATCC 25922 after 24 hrs by broth dilution method; type: functional; details: ATCC 25922, 24 h
[2] = test system: Staphylococcus aureus; assay: Antibacterial activity against Staphylococcus aureus ATCC 6538p after 24 hrs by broth dilution method; type: functional

CC1(C)S[C@@H]2[C@H](NC(=O)[C@H](N)c3ccccc3)C(=O)N2[C@H]1C(=O)O [AMPICILLIN]
MIC [1]: 3.12 mg/L (≈ 8.93 µM) | MIC [2]: 0.78 mg/L (≈ 2.23 µM)
